Usually AC50 stands for the midpoint of the concentration-response curve, whichever way the signal moves.

Each structure is given as a SMILES string. Some of the results follow. Further columns of the screen follow, without active or inactive calls. Compounds called inactive in the main read-out are mostly missing here. Potencies come from curve fits of mixed quality, noted in brackets.

This assay is described as follows: qHTS Assay to Find Inhibitors of Chronic Active B-Cell Receptor Signaling. As to conditions: ABC-DLBCL IkBa-CBG/CBR reporter, luminescence ratio (green luciferase fused to IkBa over red control in TMD8 lymphoma cells), 4 h. Summed up:
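TMD8 human ABC-DLBCL cells with doxycycline-inducible IκBα–green luciferase fusion and unfused red luciferase, in 0.5% FBS medium; compounds up to 46 uM, 4 h at 37C. Green/red luminescence ratio, filter-overlap corrected, fitted to concentration-response curves.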
Background: In qHTS, concentration-response curves come from the screen itself.

[1] abbreviates: measured here: CBR red luminescence, cell number.
The mark [2] stands for this setting: measured here: IkBa-CBG green luminescence.

In the case of `Nc1nonc1-n1nnc(C(=O)N/N=C/c2ccccc2F)c1CN1CCc2ccccc21`, the concentration at half-maximal activity (AC50) under setting [1] was 1.58 µM [rising, partial curve, poor fit].
On the same count and under the same terms, in the case of `O=C(NCC(c1ccco1)N1CCc2ccccc2C1)c1ccc(Cl)c([N+](=O)[O-])c1` (configuration not stated) it was 29.1 µM [falling, single point]; in that of `COc1cc(C(C(=O)NC(C)(C)C)N(C(=O)CNC(=O)c2cccs2)c2ccc(C(C)C)cc2)cc(OC)c1OC` (configuration not stated), 35.5 µM [rising, partial curve, poor fit]; in that of `CC(=O)Nc1ccc(NC(=O)C/C(C)=N/NC(=O)C(=O)Nc2ccc(C)c(Cl)c2)cc1`, 3.16 µM [falling, single point].
`COc1ccc2c(CC(=O)N3CCc4ccccc43)coc2c1`: the AC50 under setting [1] is 1.84 µM [falling, full curve, poor fit].
On the same count and under the same terms, to `Cc1nc(N)sc1C(=O)OCC(C)C` belongs 35.5 µM [rising, single point].
Same read-out and setting: in the case of `COC(=O)c1c(O)c2ccccc2[nH]c1=O` it was 9.2 µM [falling, single point]; in that of `CC(C)NC(=O)NC(=O)COC(=O)C1CCCN1C(=O)c1cccs1` (configuration not stated), 0.58 µM [rising, full curve, poor fit]; in that of `CC1CN(c2nc3ccccc3nc2C(C#N)C(=O)NCc2ccc3c(c2)OCO3)CC(C)O1` (configuration not stated), 7.31 µM [rising, partial curve, poor fit].
Take `C[C@@H](NC(=O)[C@@H]1Cc2ccccc2CN1)C(=O)NC1CCCCC1`: the half-maximal activity concentration (AC50) under setting [1] was 3.55 µM [falling, full curve].
With `Cc1ccc(S(=O)(=O)NCCC(=O)NCCSc2ccc(Br)cc2)cc1`, under setting [1], the half-maximal activity concentration (AC50) is 35.5 µM [rising, partial curve, poor fit].
As to `CSc1cccc(NC(=O)C2CCCN(S(=O)(=O)c3ccc(F)cc3)C2)c1` (configuration not stated), the AC50 under setting [1] was 29.1 µM [falling, single point].
Take `COc1ccc(O[C@H]2C=C[C@@H](c3ccccc3)O[C@@H]2COC(=O)CCC(C)=NO[C@@H]2O[C@H](COC(C)=O)[C@@H](OC(C)=O)[C@H](OC(C)=O)[C@H]2OC(C)=O)cc1`: the AC50 under setting [1] was 5.17 µM [rising, partial curve, poor fit] and the AC50 under setting [2] is 10.3 µM [falling, partial curve, poor fit].
In the case of `O=C(c1cc(-c2ccc(F)cc2)on1)N1CCCCCC1`, the AC50 under setting [1] was 7.08 µM [falling, full curve].
Take `CSc1ncccc1C(=O)OCc1ccccc1F`: the concentration at half-maximal activity (AC50) reads like this: under setting [1], 5.62 µM [falling, single point]; under setting [2], 5.62 µM [rising, single point].
As to `COC(=O)/C=C/C(=O)Nc1cccc(C(F)(F)F)c1`, the AC50 under setting [1] is 2.59 µM [falling, full curve].
Same read-out and setting: to `O=C(Cn1nnc2c(cnn2-c2ccccc2)c1=O)N1CCN(c2ccccc2F)CC1` belongs 22.4 µM [falling, single point].
For `O=C(NC(C(=O)N/N=C/c1cccnc1)c1n[nH]c(=O)c2ccccc12)c1ccccc1` (configuration not stated), the concentration at half-maximal activity (AC50) under setting [1] is 11.2 µM [falling, partial curve, poor fit].
The same measure, in the same setting: in the case of `O=C(Nc1nc2ccccc2[nH]1)c1cccc(Br)c1` it was 2.51 µM [falling, full curve, poor fit]; in that of `O=C(CCS(=O)(=O)c1ccccc1)Nc1nncs1`, 12.6 µM [falling, partial curve, poor fit].
With `O=C(O)c1sccc1S(=O)(=O)N1CCN(c2ccc(C(F)(F)F)cn2)CC1`, the AC50 under setting [1] was 35.5 µM [rising, single point].
Turning to `Cc1ccc(NC(=S)Nc2ccccn2)cc1C`, under setting [1], the AC50 was 0.251 µM [rising, full curve, poor fit].
On the same count and under the same terms, to `CC(C)CN(CC(C)C)C(=S)Nc1ccc(Cl)cc1` belongs 3.98 µM [rising, full curve, poor fit]; to `CCOc1ccccc1Nc1nnc(Cc2ccccc2Cl)c(=O)[nH]1`, 12.6 µM [falling, single point]; to `O=c1c2ccccc2c(-c2ccc(Cl)cc2)nn1-c1ccccc1`, 16.4 µM [rising, single point].
`COc1ccc(C(=O)O/N=C(\N)c2ccccc2Cl)cc1OC`: under setting [1], the AC50 was 8.91 µM [falling, partial curve].
Still for that read-out and setting: in the case of `COc1ccc(CNC(=O)c2sc(=S)n(-c3ccccc3)c2N)cc1` it was 35.5 µM [rising, single point]; in that of `CCCNC(=O)CC1Sc2ccccc2NC1=O` (configuration not stated), 6.51 µM [rising, partial curve, poor fit]; in that of `Cc1ccccc1OC(C)c1nc(-c2ccccc2)no1` (configuration not stated), 5.17 µM [rising, partial curve, poor fit].
In the case of `Cc1ccc(C)c2[nH]c(=O)c(CCNC(=O)Cc3cccs3)cc12`, the AC50 under setting [1] is 5.8 µM [rising, partial curve].
As to `CC(C)(NC(=O)NC(CO)c1ccccc1)c1cccc(C(C)(C)NC(=O)NC(CO)c2ccccc2)c1` (configuration not stated), the AC50 is 2.06 µM [falling, full curve] under setting [1] and 2.31 µM [rising, full curve, poor fit] under setting [2].
In the case of `Cc1ccc(S(=O)(=O)N2CCCCC2)cc1NC(=O)c1ccc(Br)o1`, under setting [1], the AC50 was 0.231 µM [falling, full curve, poor fit].
Same read-out and setting: to `Cc1c(NC(=O)CSc2nc3ccc(Cl)cc3[nH]2)c(=O)n(-c2ccccc2)n1C` belongs 1.46 µM [falling, partial curve, poor fit]; to `COc1ccc(S(=O)(=O)N2CCCC2)c(Cl)c1Cl`, 3.98 µM [rising, full curve, poor fit].
Still for that read-out and setting: in the case of `CCOC(=O)C1CCCN(Cc2ccccc2F)C1` (configuration not stated) it was 3.16 µM [rising, single point]; in that of `CC1/C(=C\c2ccc(Cl)cc2)C(=O)C2CC1C2(C)C` (configuration not stated), 15.8 µM [rising, single point]; in that of `CCn1c(C)nc2cc(-c3nc4n(n3)Cc3ccccc3-4)ccc21`, 10 µM [falling, partial curve, poor fit].
Same read-out and setting: to `CSc1ccc(-c2nc3cnccn3c2Nc2ccc3c(c2)OCO3)cc1` belongs 0.013 µM [falling, full curve, poor fit].
Take `Cc1nc2cc(NC(=O)N3c4ccccc4CC3C)ccc2o1` (configuration not stated): under setting [1], the AC50 is 29.1 µM [falling, single point].

For the origin of these results see PubChem BioAssay AID493014 (National Center for Advancing Translational Sciences (NCATS), 2011).
